# Results from one PubChem assay

Source: PubChem BioAssay AID1080 (Emory University Molecular Libraries Screening Center, 2008).

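A counter-screen in EP4-overexpressing cells measuring cyclic AMP with a time-resolved FRET kit under weak PGE2 stimulation. Compounds were tested at 20 µM final. A low (about EC15) PGE2 dose was present. Percent cAMP induction as a fraction of the 1 µM PGE2 response, averaged over three replicates; a higher value means more cAMP.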

Values are in %. Common to all entries: measured here: EP4 receptor counter-screen. This is a side read-out of the assay, for part of the compounds, not drawn at random.

| structure | setting | cAMP induction (%) |
|---|---|---|
| `Cc1ccc(-n2cc(-c3ccccc3)c3c(N4CCOCC4)ncnc32)cc1` | percent of 1 uM PGE2 response; plus low (about EC15) PGE2 agonist | 4.143 |
| `C=CCSc1nc2ccsc2c(=O)n1-c1ccccc1` | percent of 1 uM PGE2 response; plus low (about EC15) PGE2 agonist | 8.887 |
| `Cc1ccc(C(=O)C2=C(O)C(=O)N(CCCn3ccnc3)C2c2ccc(OC(C)C)cc2)o1` (stereo unspecified) | percent of 1 uM PGE2 response; plus low (about EC15) PGE2 agonist | 40.98 |
| `Cc1ccc2oc(=O)n(Cc3ccccc3OC(C)C)c2c1` | percent of 1 uM PGE2 response; plus low (about EC15) PGE2 agonist | -1.14 |
| `CCSC1=N/C(=C\c2ccccc2)C(=O)N1c1ccc(OC)cc1` | percent of 1 uM PGE2 response; plus low (about EC15) PGE2 agonist | 14.42 |
| `CCOC(=O)C1=CN(CC2CCCO2)C=C(C(=O)OCC)C1c1ccccc1C(F)(F)F` (stereo unspecified) | percent of 1 uM PGE2 response; plus low (about EC15) PGE2 agonist | 1.523 |
| `Cc1ccc(Nc2nc(CSc3nnc(-c4ccccc4C)n3C)cs2)cc1` | percent of 1 uM PGE2 response; plus low (about EC15) PGE2 agonist | -13.35 |
| `COc1ccc(-c2c(C(C)=O)c(C)nc3sc4c(c23)NC(c2ccccc2)NC4=O)cc1` (stereo unspecified) | percent of 1 uM PGE2 response; plus low (about EC15) PGE2 agonist | 26.66 |
| `COc1ccc(-c2nc3c(c(=O)[nH]c(=O)n3Cc3ccccc3)n2Cc2ccccc2)cc1` | percent of 1 uM PGE2 response; plus low (about EC15) PGE2 agonist | 6.5 |
| `CCn1c(-c2ccccc2)c(C(=O)CCl)c2ccccc21` | percent of 1 uM PGE2 response; plus low (about EC15) PGE2 agonist | -11.68 |
| `N#CC1=C(S)N(c2ccccc2)C2(CCCCC2)NC1=O` | percent of 1 uM PGE2 response; plus low (about EC15) PGE2 agonist | 3.317 |
| `CC(C)OC(=O)c1c(NC(=O)c2ccco2)sc2c1CCCCC2` | percent of 1 uM PGE2 response; plus low (about EC15) PGE2 agonist | -3.823 |
| `O=C(CSc1ncnc2c1oc1ccccc12)Nc1ccccc1F` | percent of 1 uM PGE2 response; plus low (about EC15) PGE2 agonist | 69.15 |
| `CCOC(=O)Cn1c(=S)[nH]c2c(oc3ccc(Cl)cc32)c1=O` | percent of 1 uM PGE2 response; plus low (about EC15) PGE2 agonist | 65.28 |
| `CCN(Cc1cc(Cl)cc(C)c1O)Cc1c(O)ccc2ccccc12` | percent of 1 uM PGE2 response; plus low (about EC15) PGE2 agonist | -7.54 |
| `COC1(C)CC2C(CC1OC(=O)c1cc([N+](=O)[O-])cc([N+](=O)[O-])c1)C2(C)C` (stereo unspecified) | percent of 1 uM PGE2 response; plus low (about EC15) PGE2 agonist | -6.657 |
| `CCCCCCCCCc1ccc(O)cc1` | percent of 1 uM PGE2 response; plus low (about EC15) PGE2 agonist | -9.263 |
| `Cc1cccc(Cn2c(Cc3ccccc3)nc3ccccc32)c1` | percent of 1 uM PGE2 response; plus low (about EC15) PGE2 agonist | -12.71 |
| `CCn1ncc(Cl)c1C(=O)Nc1cc(Cl)ccc1Cl` | percent of 1 uM PGE2 response; plus low (about EC15) PGE2 agonist | 8.14 |
| `CC(=O)Nc1nnc(CCN2CCCCC2)s1` | percent of 1 uM PGE2 response; plus low (about EC15) PGE2 agonist | 4.863 |
| `Cc1cc(N)c2cc(NC(=O)Nc3ccc4nc(C)cc(N)c4c3)ccc2n1` | percent of 1 uM PGE2 response; plus low (about EC15) PGE2 agonist | 47.27 |
| `Cc1ccc(NCc2n[nH]c(=S)n2Cc2ccccc2)cc1Cl` | percent of 1 uM PGE2 response; plus low (about EC15) PGE2 agonist | 10.38 |
| `COc1ccc(OC)c(/C=C/C(=O)N2CCCc3ccccc32)c1` | percent of 1 uM PGE2 response; plus low (about EC15) PGE2 agonist | -7.767 |
| `CCC(C)(C(=O)NC1CCCCC1)N(C(=O)C1CCC(=O)N1)c1ccccc1` (stereo unspecified) | percent of 1 uM PGE2 response; plus low (about EC15) PGE2 agonist | 3.603 |
| `O=C(CSc1nnc(-c2cc3ccccc3cc2O)n1Cc1ccco1)c1ccc(F)cc1` | percent of 1 uM PGE2 response; plus low (about EC15) PGE2 agonist | -22.57 |

Once more, the final 2:

{"structure": "CCC(C)(C(=O)NC1CCCCC1)N(C(=O)C1CCC(=O)N1)c1ccccc1", "stereo": "stereo unspecified", "setting": "percent of 1 uM PGE2 response; plus low (about EC15) PGE2 agonist", "cAMP induction (%)": "3.603"}
{"structure": "O=C(CSc1nnc(-c2cc3ccccc3cc2O)n1Cc1ccco1)c1ccc(F)cc1", "setting": "percent of 1 uM PGE2 response; plus low (about EC15) PGE2 agonist", "cAMP induction (%)": "-22.57"}